Test results published in patent publication US20130072665A1.
Results are given in words; binding and its absence hold for the method and conditions named. Binding calls can cover weak binding; strength is not graded here.

target: human PCSK9 (proprotein convertase subtilisin kexin type 9) (human); assay: domain binding ELISA (coated antibody captures the PCSK9 form; OD650)

binding | Binder
binds | 28D6 (antibody, V domains shown) VH: QVQLVESGGGVVQPGRSLRLSCAASGFTFSSFGMHWVRQAPGKGLEWVALIWNDGSNKYYADSVKGRFTISRDNSKNTLYLQMNSLRAEDTAVYYCARAIAALYYYYGMDVWGQGTTVTVSS VL: QSVLTQPPTVSAAPGQKVTISCSGSSSNIGNNFVSWYQQLPGTAPKLLIYDYNKRPSGIPDRFSGSKSGTSATLGITGLQTGDEADYYCGTWDSSLSGYVFGTGTRVTVL
binds | 27A6 (antibody, V domains shown) VH: QVHLVESGGGVVQPGRSLRLSCAASGFTFNSFGMHWVRQAPGKGLEWVALIWSDGSDKYYADSVKGRFTISRDNSKNTLYLQMNSLRAEDTAVYYCARAIAALYYYYGMDVWGQGTTVTVSS VL: QSVLTQPPSVSAAPGQKVTISCSGSSSNIGNNFVSWYQQFPGTAPKLLIYDYNKRPSGIPDRFSGSKSGTSATLGITGLQTGDEADYYCGTWDSSLSSYVFGTGTRVTVL
binds | 28B12 (antibody, V domains shown) VH: QVQLVESGGGVVQPGRSLRLSCAASGFTFSSFGMHWVRQAPGKGLEWVALIWNDGSNKYYADSVKGRFTISRDNSKNTLYLQMNSLRAEDTAVYYCARAIAALYYYYGMDVWGHGTTVTVSS VL: QSVLTQPPSVSAAPGQKVTISCSGSSSNIGNNFVSWYQQLPGTAPKLLIYDYNKRPSGIPDRFSGSKSGTSATLGITGLQTGDEADYYCGTWDSSLSGYVFGTGTRVTVL
binds | 13B5 (antibody, V domains shown) VH: EVQLLESGGGLVQPGGSLRLSCAASGFTFSSYAMSWVRQAPGKGLEWVSTISGSGGRTYYADSVKGRFTISRDNSKNTLYLQMNSLRAEDTAVYYCAKEVGSPFDYWGQGTLVTVSS VL: QSVLTQPPSVSAAPGQKVTISCSGSNSNIGNNYVSWYQQLPGTAPKLLIYDNNKRPSGIPDRFSGSNSGTSATLGITGLQTGDEADYYCGTWDSSLSAVVFGGGTKLTVL
binds | 22E2 (antibody, V domains shown) VH: QVQLVESGGGVVQPGRSLRLSCAASGFTFSSFGMHWVRQAPGKGLEWVALIWNDGSNKYYADSVKGRFTISRDNSKNTLYLQMNSLRAEDTAVYYCARAIAALYYYYGMDVWGQGTTVTVSS VL: QSVLTQPPSVSAAPGQKVTISCSGSSSNIGNNFVSWYQQLPGTAPKLLIYDYNKRPSGIPDRFSGSKSGTSATLGITGLQTGDEADYYCGTWDSSLSGYVFGTGTRVTVL
binds | 20D10 (antibody, V domains shown) VH: QIQLVQSGAEVKKPGASVKVSCKASGYPLTSYGISWVRQAPGQGLEWMGWISAYNGNTNYAQKVQGSVTMTTDTSTSTVYMELRSLRSDDTAVYYCARGYGMDVWGQGTTVTVSS VL: QSALTQPASVSGSPGQSITISCTGTSSDVGGYNSVSWYQQYPGKPPKLKIYEVSNRPSGVSNRFSGSKSGNTASLTISGLQAEDEADYFCSSYTSTSMVFGGGTKLTVL
binds | 26E10.1 (antibody, V domains shown) VH: QVQLVQSGAEVKKPGASVKVSCKASGYTLTSYGISWVRQAPGQGLEWMGWVSFYNGNTNYAQKLQGRGTMTTDPSTSTAYMELRSLRSDDTAVYYCARGYGMDVWGQGTTVTVSS VL: QSALTQPASVSGSPGQSITISCTGTSSDVGGYNSVSWYQQHPGKAPKLMIYEVSNRPSGVFNRFSGSKSGNTASLTISGLQAEDEADYYCNSYTSTSMVFGGGTKLTVL
binds | 3B6 (antibody, V domains shown) VH: QVQLVQSGAEVKKPGASVKVSCKASGYTFTSYGISWVRQAPGQGLEWMGWISTYNGNTNYAQKVQGRVTMTTDTSTSTAYMELRSLRSDDTAVYYCARGYTRDYWGQGTLVTVSS VL: QPVLTQPLFASASLGASVTLTCTLSSGYSSYEVDWYQQRPGKGPRFVMRVDTGGIVGSKGEGIPDRFSVLGSGLNRYLTIKNIQEEDESDYHCGADHGSGTNFVVVFGGGTKLTVL
binds | 31D1 (antibody, V domains shown) VH: QIQLVQSGAEVKKPGASVKVSCKASGYTLTSYGISWVRQAPGQGLEWMGWISFYNGNTNYAQKVQGRVTMTTDTSTSTVYMELRSLRSDDTAVYFCARGYGMDVWGQGTTVTVSS VL: QSALTQPASVSGSPGQSITISCTGTSSDVGGYNSVSWYQQHPGKPPKLMIYEVSNRPSGVSNRFSGSKSGNTASLTISGLQAEDEADYFCSSYTSTSMVFGGGTKLAVL
binds | 27E7 (antibody, V domains shown) VH: QVQLVQSGAEVKKPGASLKVSCKASGYSLTSYGISWVRQAPGQGLEWMGWISAYNGNTNYAQKVQGRVTMTTDTSTSTVYMEVRSLRSDDTAVYYCARGYGMDVWGQGTTVTVSS VL: QSALTQPASVSGSPGQSITISCTGTSSDVGGYNSVSWYQQHPGKPPKLMIYEVSNRPSGVSNRFSGSKSGNTASLTISGLQAEDEADYFCSSYTSTSMVFGGGTKLTVL
binds | 27H5 (antibody, V domains shown) VH: QVQLVQSGAEVKRPGASVKVSCKASGYTLTSYGISWVRQAPGQGLEWMGWISVYNGNTNYAQKVQGRVTMTTDTSTSTVYMELRSLSSDDTAVYYCARGYGMDVWGQGTTVTVSS VL: QSALTQPASVSGSPGQSITISCTGTSSDVGGYNSVSWYQQHPGKPPKLMIYEVSNRPSGVSIRFSGSKSGNTASLTISGLQAEDEADYFCSSYTSTSMVFGGGTKLTVL
binds | 23G1 (antibody, V domains shown) VH: QVQLVQSGAEVKKPGASVKVSCKASGYTLTSYGISWVRQAPGQGLEWMGWVSFYNGNTNYAQKLQGRGTMTTDPSTSTAYMELRSLRSDDTAVYYCARGYGMDVWGQGTTVTVSS VL: QSALTQPASVSGSPGQSITISCTGTSSDVGGYNSVSWYQQHPGKAPKLMIYEVTNRPSGVSNRFSGSKSGNTASLTISGLQAEDEADYYCNSYTSTSMVFGGGTKLTVL
binds | 26H5 (antibody, V domains shown) VH: QVQLVQSGAEVKKPGASVKVSCKASGYTLTSYGISWVRQAPGQGLEWMGWISFYNGNTNYAQKVQGRVTMTTDTSTSTVYMELRSLRSDDTAVYYCARGYGMDVWGQGTTVTVSS VL: QSALTQPASVSGSPGQSITISCTGTSSDVGGYNSVSWYQQHPGKPPKLMIYEVSNRPSGVSIRFSGSKSGNTASLTISGLQAEDEADYFCSSYTSTSMVFGGGTKLTVL
binds | 19H9 (antibody, V domains shown) VH: QVQLVQSGAEVKKPGASVKVSCKASGYALTSYGISWVRQAPGQGLEWMGWISAYNGNTNYAQKVQGRVTMTTDTSTSTVYMELRSLRSDDTAVYYCARGYGMDVWGQGTTVTVSS VL: QSALTQPASVSGSPGQSITISCTGTNSDVGGYNSVSWYQQHPGKPPKLMIYEVSNRPSGISNRFSGSKSGNTASLTISGLQAEDEADYFCSSYTSTSMVFGGGTKLTVL
binds | 17C2.1 (antibody, V domains shown) VH: QVQLVQSGAEVKKPGASVKVSCKASGYSFTSYGISWVRQAPGQGLEWMGWVSAYNGNTNYAQKFQGRVTMTTDTSTSTAYMELRSLRSDDTAVYYCARGYVMDVWGQGTTVTVSS VL: QSALTQPASVFGSPGQSITISCTGTSSDVGAYNSVSWYQQHPGKAPKRMIYEVSNRPSGVSNRFSGSKSGNTASLTISGLQAEDEADYYCSSYTSTNMVFGGGTKLTVL
binds | 30B9 (antibody, V domains shown) VH: QVQLVQSGAEVKKPGASVKVSCKASGYPLTSYGISWVRQAPGQGLEWMGWISAYNGNTNYAQKVQGRVTMTTDTSTSTVYMELRSLRSDDTAVYYCARGYGMDVWGQGTTVTVSS VL: QSALTQPASVSGSPGQSITISCTGTSSDVGGYNSVSWYQQHPGKPPKLMIYEVSNRPSGVSNRFSGSKSGNTASLTISGLQAEDEADYFCSSYTSTSMVFGGGTKLTVL
binds | 23B5 (antibody, V domains shown) VH: EVQLLESGGGLVQPGGSLRLSCAASGFTFSSYAMNWVRQAPGKGLEWVSTISGSGDNTYYADSVKGRFTISRDNSKNTLYLQMNSLRAEDTAVYYCAKKFVLMVYAMLDYWGQGTLVTVSS VL: DILMTQSPSSLSASVGDRVTITCRASQSISSYLNWYQQKPGKAPKVLIYAASSLQSGVPSRFSGSGSGTDFTLTINSLQPEDFATYYCQQSYSSPITFGQGTRLEIK
binds | 25G4 (antibody, V domains shown) VH: EVQLLESGGGLVQPGGSLRLSCAASGFTFSSYAMNWVRQAPGKGLEWVSTISGSGGNTYYADSVKGRFTISRDNSKNTLYLQMNSLRAEDTAVYYCAKKFVLMVYAMLDYWGQGTLVTVSS VL: DIQMTQSPSSLSASVGDRVTITCRASQSISIYLNWYQQKPGKAPYLLIYAAASLQSGVPSRFSGSGSGTDFTLTISSLQPEDFATYYCQQSYSAPITFGQGTRLEIK

target: human PCSK9 (proprotein convertase subtilisin kexin type 9) (human); assay: ELISA, supernatant on biotinylated PCSK9, pH 7.4 against pH 6.0

binding | Binder
binds | 27B2 (antibody, V domains shown) VH: QVQLQESGPGLVKPSQTLSLTCTVSGGSISSGGYYWSWIRQHPGKGLEWIGYIYNSGSTYYNPSLKSRVTISVDTSKNQFSLKLSSVTAADTAVYYCAREDTAMVPYFDYWGQGTLVTVSS VL: QSVLTQPPSVSGAPGQRVTISCTGSSSNIGAHYDVHWYQQVPGTAPKLLIYGNTYRPSGVPDRFSGSKSGTSASLAITGLQAEDEADYYCQSYDNSLSGVVFGGGTKLTVL
